These results are taken from article PMC7819943, “Rice protein-binding microarrays: a tool to detect cis-acting elements near promoter regions in rice”.

By UniProt entry, the sequences of proteins in these tests, tags left out.
UniProt Q0JBA9, entry or part of it: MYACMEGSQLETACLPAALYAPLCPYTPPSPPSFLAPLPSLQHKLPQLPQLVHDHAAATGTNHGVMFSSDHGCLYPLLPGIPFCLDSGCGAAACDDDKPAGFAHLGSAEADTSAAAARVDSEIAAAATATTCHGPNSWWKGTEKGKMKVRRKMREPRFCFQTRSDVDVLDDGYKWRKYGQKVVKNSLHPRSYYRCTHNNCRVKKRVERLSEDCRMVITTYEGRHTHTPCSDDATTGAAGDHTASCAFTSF

Some of the results follow.

In the assay the target is OsWRKY34 (Oryza sativa, UniProt Q0JBA9 1-250). Kind of assay: protein-binding microarray (RPBM); PBS, 2% BSA, 51.3 ng/ul salmon testes DNA, 50 uM zinc acetate, 200 nM TF, 25 C, 1 h; high values mean tight binding. As to conditions: protein: recombinant; tags: N-terminal polyhistidine and DsRed monomer fusion (pET32a); label: CyDye5-dUTP incorporated in the synthesized complementary strand; 3' TTTTT single-stranded linker to array surface; dsDNA, one strand shown. Summed up: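 A custom Agilent array was converted to double-stranded form by primer extension with Cy5-dUTP and blocked with 2% BSA. Protein at 200 nM in PBS with 2% BSA, salmon testes DNA and 50 µM zinc acetate was applied for 1 h at 25 °C, followed by washing. The proteins were polyhistidine–DsRed N-terminal fusions of transcription factors, expressed in E. coli BL21-CodonPlus and Ni–NTA-purified. The binding signal is per-feature fluorescence intensity (arbitrary units) from an Axon 4000B scanner.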
In the case of “GGTGTCGTATGGGGTGTTCAGGCACTAATAAAAAAAAATACGGAGTCACCTAGTGCAG”, the binding signal is 11400 fluorescence intensity (a.u.). For “CCTGGAAGGAGTCCCCGTTATTGCTTTGCCATGTTTCTTCCGGAGTCACCTAGTGCAG” the value was 9120 fluorescence intensity (a.u.); for “ATCTAGTAGTATTTGCCACCGAATGTTTTTCTGGGATGCTCGGAGTCACCTAGTGCAG”, 8330 fluorescence intensity (a.u.); for “AAAATCTCCATCCCAGCCACCTCACAACAAGATCCTCAACCGGAGTCACCTAGTGCAG”, 9550 fluorescence intensity (a.u.). For “GAGAAAAGCAGCCACAGATAATGACTAAACTTGCACATCTCGGAGTCACCTAGTGCAG”, the binding signal was 8200 fluorescence intensity (a.u.). Consider “TCCCGTCTCGTCCGTCGTCTCCTCCGCTCCTTGCGCCAAGCGGAGTCACCTAGTGCAG”, for which the binding signal is 10200 fluorescence intensity (a.u.). For “TACCGGTAAATATTCGCTACCGTATTTGTTCCATCTCGTACGGAGTCACCTAGTGCAG” the value was 8540 fluorescence intensity (a.u.). As to “CAGTTTGGTTGTTCATTGGTTGGTTCGTGTATCTGACGAACGGAGTCACCTAGTGCAG”, the binding signal was 13100 fluorescence intensity (a.u.). For “ACCTGTAGTTGCCAATCAAACATGTCTTACGGCCTGTTTGCGGAGTCACCTAGTGCAG” the value was 8300 fluorescence intensity (a.u.); for “CTGCATACCGAGACGTTATTCCAAGCTCGCATTGAACTGCCGGAGTCACCTAGTGCAG”, 8910 fluorescence intensity (a.u.). For the sequence “GTCGCGCTATATATACCCCTCACTCGCTGCGATTTTACAGCGGAGTCACCTAGTGCAG”, the binding signal is 8400 fluorescence intensity (a.u.). For “TTTGTTTGCAGCTGCTCTCTTGTCCTTCTTCTTCGCTATTCGGAGTCACCTAGTGCAG” the value was 11500 fluorescence intensity (a.u.); for “AGTTCCTCATCAAATCACTTGATAAATGTATAATTCCTTTCGGAGTCACCTAGTGCAG”, 8300 fluorescence intensity (a.u.); for “TCCATCAGTTTTGTGAACTCTGTCTGTCACTCGCTCAGCACGGAGTCACCTAGTGCAG”, 8940 fluorescence intensity (a.u.). For “TCAATTCCGTTTCTTGGTTCGTCGCAGAAGCCTCAAGCTCCGGAGTCACCTAGTGCAG”, the binding signal is 8330 fluorescence intensity (a.u.). In the case of “CCGCCGCCGCCTTGTCGCCCGCCGCCTACTCTCTCGCCTCCGGAGTCACCTAGTGCAG”, the binding signal is 8080 fluorescence intensity (a.u.). With “ACTCAGTTTCGTGCATGGATCTTACGAAGGTCAGGGGAGGCGGAGTCACCTAGTGCAG”, the binding signal was 8380 fluorescence intensity (a.u.).

As for “GTATTTTCATCTGTTTGTTCGACACGGTTGAGTGCACGACCGGAGTCACCTAGTGCAG”, the binding signal is 8120 fluorescence intensity (a.u.). Next, “CGGCTCGACCCGATGCTGTGGATTTCCGTTGCTACTATACCGGAGTCACCTAGTGCAG”: 8400 fluorescence intensity (a.u.). For the sequence “GACATAAGTTTATTATCTATATCCATAGTACGTTTAATCCCGGAGTCACCTAGTGCAG”, the binding signal was 10100 fluorescence intensity (a.u.). As to “ACCACTGATTCGCCCTGTTTACAGCAAGTTGCTCTGTGTTCGGAGTCACCTAGTGCAG”, the binding signal was 10500 fluorescence intensity (a.u.). Consider “CCAAGTGTAGCCGTAGATATCTGTGTCCAACATTTGACCACGGAGTCACCTAGTGCAG”, for which the binding signal was 8220 fluorescence intensity (a.u.). For “TATTTGCGCCGATTCGTTTTTGTTCCGTTTTCGGTTTTGACGGAGTCACCTAGTGCAG” the value was 12800 fluorescence intensity (a.u.); for “AATCTATTAAAAAAATTAGGGGTGGGTAGATATGTTATACCGGAGTCACCTAGTGCAG”, 11400 fluorescence intensity (a.u.); for “AAGCCCAACGTGCTTCATCTCTTCTTCTATCTTATCTTCTCGGAGTCACCTAGTGCAG”, 8190 fluorescence intensity (a.u.). As to “ATTGTATTTCGATGAAATCCGTGTTTATGCGATTATATGACGGAGTCACCTAGTGCAG”, the binding signal is 8210 fluorescence intensity (a.u.). With “CCTCGCCTCACCTTCAAATACGAGCTGCCTCCACTGCCTCCGGAGTCACCTAGTGCAG”, the binding signal is 9050 fluorescence intensity (a.u.).

Consider “CTTTCGTTTCTTTTTTTTTTGCCCCTCGTTTTGCGTTTTCCGGAGTCACCTAGTGCAG”, for which the binding signal was 10900 fluorescence intensity (a.u.). With “GATTGGATAGTGTGATTTTTCGCCTCGGCATTTGGTGGGCCGGAGTCACCTAGTGCAG”, the binding signal is 8040 fluorescence intensity (a.u.). Next, “TCCTTCCCACTCCCACCACCACCACTGCCTCTTCCTCTTCCGGAGTCACCTAGTGCAG”: 10600 fluorescence intensity (a.u.); “TTTTTGTTTTTGTTTGCCTTTGATCTTTGCAAGAAGTTACCGGAGTCACCTAGTGCAG”: 8920 fluorescence intensity (a.u.); “GTCCAACCCCTGCTTTCCTGCCTGTCCATACCGATCATGGCGGAGTCACCTAGTGCAG”: 9060 fluorescence intensity (a.u.). Next, “GCTCTTCATCTTGTTGCTTCTTCCCTCTTTGAATTTCATTCGGAGTCACCTAGTGCAG”: 8950 fluorescence intensity (a.u.); “ACGGTTTTATCTTGTCACTCGGGTGTTGCTAGGGCACGATCGGAGTCACCTAGTGCAG”: 8440 fluorescence intensity (a.u.). Consider “CCCATTACTCCTGTAGTCGAGGGGTTTGCTATTCTGGCTCCGGAGTCACCTAGTGCAG”, for which the binding signal was 9710 fluorescence intensity (a.u.). Consider “CTTTGTTGTTTTCTTCTGTTAGTGTCTGTATTATTCATTACGGAGTCACCTAGTGCAG”, for which the binding signal is 9880 fluorescence intensity (a.u.).

Turning to “ACACACTGTCACCTCAGCTGACCTCTGATGATCAACGAAACGGAGTCACCTAGTGCAG”, the binding signal is 9560 fluorescence intensity (a.u.). Turning to “AGATACATACGCCCACCCGCCGCGCCCACTTCCGTCCAAACGGAGTCACCTAGTGCAG”, the binding signal was 8490 fluorescence intensity (a.u.).

As to “CAACCTCTTGCTAACTTTCCTTTGAGTCTATCTCTCTCATCGGAGTCACCTAGTGCAG”, the binding signal is 10700 fluorescence intensity (a.u.). Next, “AGTCCAGGAGGGTTAGTTCTGTTCTTACGAAATGTTTCTGCGGAGTCACCTAGTGCAG”: 8760 fluorescence intensity (a.u.); “AGGAGGGTGACTTTTATAGAGGGCTATGGGTGACTAGTTTCGGAGTCACCTAGTGCAG”: 8180 fluorescence intensity (a.u.).

Turning to “CGGTTTTGTATAGTTTAGGGGTGAAGATTTCTGGTTTTGTCGGAGTCACCTAGTGCAG”, the binding signal was 13500 fluorescence intensity (a.u.). For the sequence “CTTCGAGATGCTATTTTGACCAACGATATTGTGATAGTTTCGGAGTCACCTAGTGCAG”, the binding signal is 8510 fluorescence intensity (a.u.). For the sequence “TTTTTTTGTTCAGAGACTTCTGCTCTCGGGTTAGTTCGGTCGGAGTCACCTAGTGCAG”, the binding signal was 8340 fluorescence intensity (a.u.). With “CTTGCTTTCTGCGTCGTCGTCTGCGTCTTCTTCTTCATTGCGGAGTCACCTAGTGCAG”, the binding signal was 13000 fluorescence intensity (a.u.). For “CGCGTTTTGTATTCTTCGTTCGTATCTTCGTACTAGTCTCCGGAGTCACCTAGTGCAG” the value was 8240 fluorescence intensity (a.u.); for “CATCCTAGCTACTGTTCTCTTTTATTTGATCCATCCAATACGGAGTCACCTAGTGCAG”, 8730 fluorescence intensity (a.u.); for “AAAATGCCAGGTTGTACTTTGTTTCTACTATAGCTCCTAGCGGAGTCACCTAGTGCAG”, 8250 fluorescence intensity (a.u.). Next, “CCGTGTATGTTTGTCTATTTGCATATTTCTTGAAAAGACACGGAGTCACCTAGTGCAG”: 9020 fluorescence intensity (a.u.). As to “GCTTTCCACCCGTTATTAGTGGGCCAGCCCATGAAAACGACGGAGTCACCTAGTGCAG”, the binding signal is 8640 fluorescence intensity (a.u.). As for “CCTCACATTACAGTGACCCACACCTTTGCATGTCGCCTCACGGAGTCACCTAGTGCAG”, the binding signal is 12000 fluorescence intensity (a.u.). With “TATCGTCCGGTGCTCCTCGTCCATGTCAACAGCTACCATACGGAGTCACCTAGTGCAG”, the binding signal was 9850 fluorescence intensity (a.u.). For “AGTATAAGATTAATATTAATTCATCCATTTCAGTTATTTCCGGAGTCACCTAGTGCAG” the value was 8280 fluorescence intensity (a.u.); for “CAATCCTGGAACTCGATTATTAATTGTATGTTGCCAACCGCGGAGTCACCTAGTGCAG”, 10400 fluorescence intensity (a.u.).
